Laboratory results taken from PubChem BioAssay AID485360 (National Center for Advancing Translational Sciences (NCATS), 2010).
The campaign covered roughly 230,000 compounds. About 1,500 (0.65%) were called active. All entries are inconclusive by the source's own rule. Clear calls are listed elsewhere. Calls follow the shape of the dose curve; as a rule, active = well fitted inhibition curve with a large enough effect; inconclusive = small, poorly fitted or top-dose-only effect; inactive = no such curve, though single readings can be large or run the other way.

Sequences of proteins named here, by UniProt entry; tags and fusion partners are left off.
UniProt Q9Y468, whole entry: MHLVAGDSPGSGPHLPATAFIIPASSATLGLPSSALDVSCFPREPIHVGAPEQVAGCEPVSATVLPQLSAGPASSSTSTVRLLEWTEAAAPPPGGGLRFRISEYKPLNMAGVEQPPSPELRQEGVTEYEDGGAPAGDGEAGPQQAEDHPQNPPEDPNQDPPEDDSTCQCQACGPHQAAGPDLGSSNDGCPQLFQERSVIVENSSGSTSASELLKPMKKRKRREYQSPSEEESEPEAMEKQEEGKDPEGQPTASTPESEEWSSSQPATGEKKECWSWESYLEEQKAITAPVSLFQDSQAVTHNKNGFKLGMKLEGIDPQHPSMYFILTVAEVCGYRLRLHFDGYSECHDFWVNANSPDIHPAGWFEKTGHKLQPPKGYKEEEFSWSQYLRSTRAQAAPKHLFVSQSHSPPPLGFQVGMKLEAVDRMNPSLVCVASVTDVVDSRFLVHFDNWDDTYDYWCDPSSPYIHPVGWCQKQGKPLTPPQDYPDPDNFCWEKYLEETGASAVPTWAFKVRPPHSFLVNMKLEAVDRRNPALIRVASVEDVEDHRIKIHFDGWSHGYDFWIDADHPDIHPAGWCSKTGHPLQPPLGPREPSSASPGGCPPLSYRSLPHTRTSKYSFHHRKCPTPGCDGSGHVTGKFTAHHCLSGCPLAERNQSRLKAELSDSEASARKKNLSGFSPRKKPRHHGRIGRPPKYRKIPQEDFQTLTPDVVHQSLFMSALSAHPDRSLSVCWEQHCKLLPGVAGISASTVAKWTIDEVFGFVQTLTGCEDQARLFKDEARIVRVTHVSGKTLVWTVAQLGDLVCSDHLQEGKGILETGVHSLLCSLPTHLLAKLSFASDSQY

target: Lethal(3)malignant brain tumor-like protein 1 (Homo sapiens) (UniProt Q9Y468); test: qHTS Assay for the Inhibitors of L3MBTL1; conditions: AlphaScreen L3MBTL1–H3K9me1 peptide binding; also: nearly all actives have a fitted effect of over 60% in size
Potency is read from the fitted curve at half-maximal effect.

Q: How did the Potency turn out when `CC1=C2N=C(C=C3N=C(C(C)=C4[N-][C@@](C)([C@@H]5N=C1[C@](C)(CCC(=O)NC[C@@H](C)OP(=O)([O-])O[C@H]1[C@@H](O)[C@@H](n6cnc7cc(C)c(C)cc76)O[C@@H]1CO)[C@H]5CC(N)=O)[C@@](C)(CC(N)=O)[C@@H]4CCC(N)=O)[C@@](C)(CC(N)=O)[C@@H]3CCC(N)=O)C(C)(C)[C@@H]2CCC(N)=O.[C-]#N.[Co+3]` was run?
A: The Potency was inconclusive: 25.1 µM.
